# According to US9188580B2, “Gene reporter assay, kit, and cells for determining the presence and/or the level of a molecule that activates signal transduction activity of a cell surface protein” (LE CENTRE NATIONALE DE LA RECHERCHE SCIENTIFIQUE, priority 2002, dated 2015):
# At least one compound was matched to its structure with a doubt left.
# System: PIL5 cells
# Experiment: IFN sensitivity (shelf life) of γ-irradiated PIL5 cells treated with inhibitors of apoptosis
# Assay type: cell-based, human
# Settings: after 6 Gy of γ irradiation; increasing concentrations (0.1 to 100 μM); FIG. 10
structure (smiles),measurement,value
O=C(O)C1=CC(=C(c2ccc(O)c(C(=O)O)c2)c2ccc(O)c(C(=O)O)c2)C=CC1=O [aurintricarboxylic acid],shelf life of PIL-5 gene reporter,did not extend the shelf life
